According to PubChem BioAssay AID540256 (National Center for Advancing Translational Sciences (NCATS), 2011):
The whole screen tested about 300,000 compounds, of which about 3,700 (1.2%) were called active. This list was built around the results that the source calls inconclusive (neither active nor inactive); the mix of calls is not that of the screen. Calls follow the shape of the full dose curve; tested in HEK293 cells. Potencies beside an inconclusive call are fits to weak or partial responses and may not hold up.
% is scaled to controls: 0 for no effect and ±100 for the full control effect; potency is read from the fitted curve at half-maximal effect.

Experiment: qHTS for Inhibitors of binding or entry into cells for Lassa Virus; also: nearly all actives have a fitted effect of over 50% in size
Conditions: Lassa virus pseudotype entry inhibition, cell reporter; activity change, negative = inhibition: at 37.9 µM (top of the series) unless noted
For `CCOc1ccc(CNS(=O)(=O)c2ccc3c(c2)CCCN3C(C)=O)cc1`, the Potency was inconclusive: 6.31 µM [inhibitor, single point]. In the case of `O=C(NCCc1csc(-c2cccnc2)n1)c1c(F)cccc1F`, the “activity change, negative = inhibition” value is reported as inactive: 4.45%. In the case of `Cc1ccc(CNC(=O)COC(=O)C2CCN(S(=O)(=O)c3cccs3)CC2)cc1`, the Potency is reported as inconclusive: 20.6 µM [activator, partial curve, poor fit]. With `CC(=O)Nc1ccccc1C(=O)OCC(=O)c1ccccc1Cl` the Potency was inconclusive: 7.08 µM [activator, partial curve, poor fit]. For `CCN1/C(=C/C=C/c2oc3ccc4ccccc4c3[n+]2CC)Oc2ccc3ccccc3c21`, the Potency was inconclusive: 2.82 µM [inhibitor, partial curve, poor fit]. With `COc1cc(-n2c(=O)c3ccccc3n(Cc3cccnc3)c2=O)cc(OC)c1OC` the Potency was inconclusive: 1.26 µM [activator, single point]. In the case of `COc1ccc(CNC(=O)Cc2c(C)c3cc4c(C)coc4c(C)c3oc2=O)cc1OC`, the Potency is reported as inconclusive: 12.6 µM [activator, single point]. With `O=C(c1ccc2ncsc2c1)N1CCN(c2cccc(C(F)(F)F)c2)CC1` the Potency was inconclusive: 7.08 µM [inhibitor, partial curve, poor fit]. In the case of `CC(C)N1C(=O)S/C(=C/c2ccccc2OCc2ccc(C(=O)O)cc2)C1=O`, the “activity change, negative = inhibition” value is reported as inactive: 10.5% [at 46.1 µM]. For `COc1ccc(/C=N/N2C(=O)C3C4C=CC(C4)C3C2=O)cc1[N+](=O)[O-]` (stereo not drawn), the Potency was inconclusive: 20 µM [inhibitor, single point]. With `O=C(Nc1ncccc1O)c1ccc(S(=O)(=O)N2CCCCCC2)cc1` the “activity change, negative = inhibition” value was inactive: 10.4%. With `Cc1ccc(C(=O)Cn2nnc3ccccc32)cc1C` the Potency was inconclusive: 32.6 µM [inhibitor, single point]. In the case of `CSc1nc2sc3c(c2c(=O)[nH]1)CCCC3`, the Potency is reported as inconclusive: 10 µM [activator, single point]. For `CCOc1ccc(CN2C(=O)c3ccccc3C2C(=O)NCCc2ccc(OC)c(OC)c2)cc1` (stereo not drawn), the Potency was inconclusive: 3.55 µM [inhibitor, single point]. With `COc1cccc(/C=C/C(=O)OCC(=O)NCCNC(=O)COC(=O)/C=C/c2cccc(OC)c2)c1` the “activity change, negative = inhibition” value was inactive: -1.71%. For `COC(=O)Nc1ccc(SCC(=O)c2ccc(Cl)cc2)cc1`, the Potency was inconclusive: 17.8 µM [inhibitor, partial curve, poor fit]. In the case of `CCOc1ccccc1N1CCN(S(=O)(=O)c2ccc(C3CCCCC3)cc2)CC1`, the Potency is reported as inconclusive: 6.31 µM [activator, single point]. In the case of `O=S(=O)(Cc1ccccc1)NC1c2ccccc2Oc2ccccc21`, the Potency is reported as inconclusive: 10 µM [inhibitor, partial curve, poor fit]. In the case of `CC(Sc1nnc(C2CC2)n1C1CC1)C(=O)Nc1ccccc1C#N` (stereo not drawn), the Potency is reported as inconclusive: 1.26 µM [inhibitor, partial curve, poor fit]. With `O=C(CSc1nccn1-c1ncc(C(F)(F)F)cc1Cl)c1ccc(Cl)cc1` the Potency was inconclusive: 15.8 µM [activator, single point]. With `CC(=O)NC(=S)Nc1ccc(NC(=O)c2cccs2)cc1` the Potency was inconclusive: 4.47 µM [activator, partial curve, poor fit]. For `CCCCC(Sc1nc2cc3c(cc2c(=O)n1CCCC(=O)NCc1ccc2c(c1)OCO2)OCO3)C(=O)OCC` (stereo not drawn), the Potency was inconclusive: 11.2 µM [activator, single point]. For `COc1ccccc1CNC(=O)c1ccc2c(c1)N(Cc1c(F)cccc1Cl)C(=O)CS2`, the Potency was inconclusive: 35.5 µM [inhibitor, single point]. With `Cc1cc(C)cc(NC(=O)c2cc(S(=O)(=O)N3CCc4ccccc43)cn2C)c1` the Potency was inconclusive: 35.5 µM [inhibitor, single point]. In the case of `COC(=O)c1sc(C(F)(F)F)c(-c2ccccc2)c1S(=O)(=O)N1CCOCC1`, the Potency is reported as inconclusive: 31.6 µM [inhibitor, single point]. For `C[C@]12CC[C@H](N)CC1=CCC1C2CC[C@@]2(C)C1CC[C@@H]2O` (stereo partly drawn), the Potency was inconclusive: 6.31 µM [inhibitor, single point]. For `CC(C)c1ccc(NC(=O)Cn2cc(S(=O)(=O)Cc3ccccc3Cl)c3ccccc32)cc1`, the Potency was inconclusive: 35.5 µM [inhibitor, single point]. In the case of `CC(O)CNC(=O)c1ccc(-c2nn(C)c(=O)c3ccccc23)cc1` (stereo not drawn), the “activity change, negative = inhibition” value is reported as inactive: -5.4%. With `CC1CC(C)CN(C(=O)COC(=O)C2CCN(S(=O)(=O)c3ccc4c(c3)OCCO4)CC2)C1` (stereo not drawn) the Potency was inconclusive: 1 µM [activator, full curve]. In the case of `Cc1ccc(S(=O)(=O)N2CCOCC2)cc1C(=O)OCC(=O)Nc1ccc2c(c1)OCO2`, the “activity change, negative = inhibition” value is reported as inactive: 10.6%. With `CC(C)CC(=O)N/C(N)=N/c1nc2ccccc2s1` the Potency was inconclusive: 0.631 µM [activator, partial curve, poor fit]. In the case of `CCOc1cc(C2NN=C(c3ccccc3)S2)ccc1OCc1ccccc1Cl` (stereo not drawn), the Potency is reported as inconclusive: 14.6 µM [inhibitor, single point]. For `COc1ccccc1CC(=O)Nc1ccc2nc(Nc3cccc(Cl)c3)cc(C)c2c1`, the Potency was active: 3.16 µM. For `Cc1onc(-c2ccccc2)c1C(=O)Nc1nc2c(s1)CCCC2`, the “activity change, negative = inhibition” value was inactive: 16.3%. For `Cc1ccccc1CSCc1nc(N)nc(Nc2ccccc2C)n1`, the “activity change, negative = inhibition” value was inactive: 9.61%. For `COc1ccc(-c2csc3ncnc(Nc4cc(OC)cc(OC)c4)c23)cc1`, the Potency was inconclusive: 0.631 µM [inhibitor, full curve, poor fit]. In the case of `c1ccc2c(c1)CCCC2C1=NCCN1` (stereo not drawn), the Potency is reported as inconclusive: 4.11 µM [inhibitor, single point]. In the case of `COc1ccc(C(=O)COC(=O)CNC(=O)C2CCCCC2)c(OC)c1`, the Potency is reported as inconclusive: 3.98 µM [inhibitor, single point]. For `COc1ccc(/C=N/N(Cc2ccccc2)c2ccccc2)cc1O`, the Potency was inconclusive: 0.355 µM [inhibitor, full curve]. With `Cc1nn(-c2cccc(C(F)(F)F)c2)c(Cl)c1/C=N/Nc1cccc(C(=O)O)c1` the Potency was inconclusive: 10 µM [inhibitor, single point]. In the case of `Cc1ccc(S(=O)(=O)N2CCN=C2SC(C)c2ccccc2)cc1` (stereo not drawn), the Potency is reported as inconclusive: 3.16 µM [inhibitor, partial curve, poor fit]. For `CN(C)S(=O)(=O)c1cc(NC(=O)COC(=O)Cc2cccc3ccccc23)ccc1Cl`, the Potency was inconclusive: 3.55 µM [inhibitor, partial curve, poor fit]. With `Cc1ccc(NC(=O)c2sc(-n3nc(C)c(Cc4ccc5c(c4)OCO5)c3C)nc2C)cc1Cl` the “activity change, negative = inhibition” value was inactive: 10.4% [at 46.1 µM]. For `O=C(Cc1cnn(-c2ccccc2)c1)c1ccc(O)c(O)c1O`, the Potency was inconclusive: 5.62 µM [activator, single point]. For `CCOc1ccc(Oc2cc(NC(=O)c3ccco3)cc([N+](=O)[O-])c2)cc1`, the Potency was inconclusive: 4.47 µM [inhibitor, single point]. In the case of `CCN(CC)S(=O)(=O)c1ccc2c(c1)N(CC(=O)NCCCN1CCN(c3cc(Cl)ccc3C)CC1)C(=O)CO2`, the Potency is reported as inconclusive: 25.1 µM [inhibitor, single point]. With `COc1ccc(NC(=S)Nc2ccc(F)cc2)c(OC)c1` the Potency was inconclusive: 14.1 µM [activator, partial curve, poor fit]. In the case of `CCCOc1ccc(NC(=O)C(=O)NCCCN2CCOCC2)cc1`, the “activity change, negative = inhibition” value is reported as inactive: 19.8% [at 46.1 µM]. With `COC(=O)c1sccc1NC(=O)CC1C(=O)NCCN1C(=O)Nc1ccccc1` (stereo not drawn) the Potency was inconclusive: 0.891 µM [inhibitor, partial curve, poor fit]. For `Cc1cc(NS(=O)(=O)c2ccc(NC(=O)CNS(=O)(=O)c3ccccc3)cc2)nc(C)n1`, the Potency was inconclusive: 1.26 µM [inhibitor, single point]. In the case of `CCOc1ccc(NC(=O)CCc2c(C)nc3cc(-c4ccc(Cl)cc4)nn3c2C)cc1`, the Potency is reported as inconclusive: 6.31 µM [inhibitor, partial curve, poor fit]. For `Cc1ccc(C(=O)NC2c3ccccc3-c3ccccc32)cc1`, the Potency was inconclusive: 0.282 µM [inhibitor, full curve, poor fit]. In the case of `CC(C)CC(=O)Nc1ccccc1-c1nnn(CC(=O)N2CCc3ccccc3C2)n1`, the Potency is reported as inconclusive: 20.6 µM [inhibitor, single point]. With `Cc1[nH]c2ccc(-c3n[nH]c(=S)n3-c3ccc(Br)cc3)cc2c1C` the Potency was inconclusive: 2.51 µM [inhibitor, full curve, poor fit]. With `O=C(Nc1cccc(C(F)(F)F)c1)c1cccc(NS(=O)(=O)c2ccc(O)c(C(=O)O)c2)c1` the Potency was inconclusive: 0.447 µM [inhibitor, partial curve, poor fit]. For `CCOC(=O)c1ccc(NC(=O)Cn2nnc3ccccc32)cc1`, the “activity change, negative = inhibition” value was inactive: -11%. With `O=C(COC(=O)c1cc(-c2ccccc2)nc2ccccc12)NCC1CCCO1` (stereo not drawn) the Potency was inconclusive: 3.16 µM [inhibitor, partial curve, poor fit]. With `Oc1ccc(NCc2ccc(OCc3ccccc3)cc2)cc1` the Potency was inconclusive: 3.55 µM [activator, partial curve, poor fit]. For `COc1cc(CO)ccc1OCC(=O)Nc1ccc(Br)cc1`, the “activity change, negative = inhibition” value was inactive: 15.4%. With `COc1ccc2[nH]c3c(=O)n(Cc4ccco4)cnc3c2c1` the Potency was inconclusive: 4.47 µM [inhibitor, full curve, poor fit]. With `CCCN(CCC)S(=O)(=O)c1ccc(C(=O)Nc2nnc(CSC)o2)cc1` the Potency was inconclusive: 29.1 µM [inhibitor, single point]. With `CCOC(=O)C1CCCN(C(=O)/C(=C/c2ccco2)NC(=O)c2ccccc2)C1` (stereo not drawn) the “activity change, negative = inhibition” value was inactive: -6.64%. For `COc1cccc(/C=N/NC(=O)CN(C2=NS(=O)(=O)c3ccccc32)c2ccccc2)c1`, the Potency was inconclusive: 4.47 µM [inhibitor, partial curve, poor fit].
